Test results published in publication PMC8125063.
Results are given in words; binding and its absence hold for the method and conditions named. In cells and extracts the contact can be indirect. Some binding calls cover weakened binding; strength is not graded here.

Amino acid sequences for entries named in this document (tags omitted).
UniProt P11798: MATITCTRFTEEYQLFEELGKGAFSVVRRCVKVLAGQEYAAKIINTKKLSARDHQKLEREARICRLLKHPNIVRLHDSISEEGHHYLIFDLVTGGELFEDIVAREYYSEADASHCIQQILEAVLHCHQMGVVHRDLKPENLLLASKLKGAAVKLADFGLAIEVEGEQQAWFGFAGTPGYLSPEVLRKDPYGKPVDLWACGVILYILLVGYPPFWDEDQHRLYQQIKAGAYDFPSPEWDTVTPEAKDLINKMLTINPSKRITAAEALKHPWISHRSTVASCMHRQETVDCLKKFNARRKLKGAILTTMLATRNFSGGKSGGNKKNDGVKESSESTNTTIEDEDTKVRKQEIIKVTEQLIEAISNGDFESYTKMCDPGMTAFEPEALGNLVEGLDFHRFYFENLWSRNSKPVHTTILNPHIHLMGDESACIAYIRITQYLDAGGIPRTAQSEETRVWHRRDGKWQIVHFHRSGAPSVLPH

Biological target: T1, Fructose 1,6-bisphosphatase 2 (Fbp2), endogenous in mouse hippocampal neurons (mouse (endogenous in hippocampal neurons of C57BL6 mice)) (UniProt P70695)
T1 sequence: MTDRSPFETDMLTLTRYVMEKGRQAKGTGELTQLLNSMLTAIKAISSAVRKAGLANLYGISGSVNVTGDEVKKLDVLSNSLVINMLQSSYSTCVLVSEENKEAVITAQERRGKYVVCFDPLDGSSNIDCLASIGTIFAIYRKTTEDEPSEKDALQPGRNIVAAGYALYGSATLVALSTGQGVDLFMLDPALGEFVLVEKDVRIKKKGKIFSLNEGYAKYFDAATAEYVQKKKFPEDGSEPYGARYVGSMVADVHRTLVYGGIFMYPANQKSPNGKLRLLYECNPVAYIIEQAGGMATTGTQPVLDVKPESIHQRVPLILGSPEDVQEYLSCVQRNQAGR
Assay: proximity ligation; DuoLink In Situ Orange kit on cultured mouse hippocampal neurons with mouse anti-Fbp2 and rabbit anti-Camk2α; neurons untreated or treated with 100 µM CoCl2 and/or 5 µM iFbp for 24 h

“Ca2+/calmodulin-dependent protein kinase 2α (Camk2α), endogenous in mouse hippocampal neurons (from UniProt P11798 1-478) (enzyme)” was tested, and the binding was “binds”.
